Values from PubChem BioAssay AID1671195 (Yale University, 2021).
Screen: 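Knockdowns that increase or decrease uptake of fluorescent LDL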 (primary screen). Cell system: human Huh7 hepatoma cells. Reagents: siRNA pool against human genes, 18 nM. Time to read-out: about 2 to 2.5 days of knockdown, then 8 h LDL uptake. Conditions: DiI-labelled LDL at 30 µg/ml for 8 h, in lipoprotein-deficient serum medium. Measurement: 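Per-cell DiI-LDL intensity by automated imaging; well means scaled to the plate median and given as a robust z-score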. Scale: robust z-score: higher = more LDL uptake after knockdown. Call rule: 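Active when two or more replicates show a robust z-score above 2 or below -2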.
The deposit covers about 22,000 reagents; this is a part drawn at random. About 1,510 of all reagents (6.9%) count as active. 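Active includes knockdowns raising or lowering LDL uptake; positive z-scores mean more uptake, negative mean less.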 Reagents against one gene are numbered here. Reagent sequences are not shown.

Gene | reagent no. | robust z-score, replicate 1 | robust z-score, replicate 2 | robust z-score, replicate 3 | outcome
BPIFB3 (BPI fold containing family B member 3) | 1 | 6.48 | 5.15 | 4.36 | active
LOC390669 (retired record) | 1 | 0.348 | 0.0732 | 0.492 | inactive
RNF141 (ring finger protein 141) | 1 | 0.89 | 0.164 | 1.4 | inactive
NPAS1 (neuronal PAS domain protein 1) | 1 | 0.0423 | 1.85 | 1.57 | inactive
TBC1D32 (TBC1 domain family member 32) | 1 | 1.27 | 0.808 | 0.265 | inactive
LGALS17A (galectin 14 pseudogene) | 1 | -0.531 | -0.282 | -0.163 | inactive
RAMP3 (receptor activity modifying protein 3) | 1 | -1.21 | -1.45 | -1.39 | inactive
MAB21L3 (mab-21 like 3) | 1 | -0.523 | -0.392 | -1.29 | inactive
TACR1 (tachykinin receptor 1) | 1 | -1.03 | -1.41 | -1.53 | inactive
LOC338914 (retired record) | 1 | 0.591 | 0.467 | 0.247 | inactive
RIMS2 (regulating synaptic membrane exocytosis 2) | 1 | 0.208 | 0.268 | 0.105 | inactive
INKA2 (inka box actin regulator 2) | 1 | -0.89 | -1.53 | -1.92 | inactive
PPM1A (protein phosphatase, Mg2+/Mn2+ dependent 1A) | 1 | -0.192 | -0.22 | -0.496 | inactive
FUT4 (fucosyltransferase 4) | 1 | 0.663 | 3.21 | 1.16 | inactive
GPRASP1 (G protein-coupled receptor associated sorting protein 1) | 1 | -0.176 | 0.00765 | -1.9 | inactive
MRPL44 (mitochondrial ribosomal protein L44) | 1 | 1.85 | 2.26 | 1.48 | inactive
CTRL (chymotrypsin like) | 1 | 0.188 | -0.0809 | 0.0448 | inactive
OBSCN | 1 | -0.107 | 0.0983 | 0.675 | inactive
OBSCN | 2 | -0.185 | 0.0461 | 0.0707 | inactive
KLF12 (KLF transcription factor 12) | 1 | -0.226 | 0.191 | 0.0497 | inactive
LOC402326 (retired record) | 1 | -0.791 | -0.292 | -0.577 | inactive
KTN1 (kinectin 1) | 1 | -0.436 | -0.354 | -0.306 | inactive
ARHGAP5 (Rho GTPase activating protein 5) | 1 | 0.0615 | 0.815 | 0.209 | inactive
ZNF697 (zinc finger protein 697) | 1 | -0.126 | -0.551 | -0.323 | inactive
LOC400475 (retired record) | 1 | -1.1 | -0.575 | -0.641 | inactive
EXOSC3 (exosome component 3) | 1 | -1.04 | -0.362 | -0.761 | inactive
SIGLEC15 (sialic acid binding Ig like lectin 15) | 1 | 0.313 | 0.261 | 0.732 | inactive
LOC442508 (retired record) | 1 | 1.1 | 0.349 | -1.46 | inactive
AGMAT (agmatinase (putative)) | 1 | 0.251 | 0.0991 | 0.754 | inactive
DENND6B (DENN domain containing 6B) | 1 | 2.88 | 3.17 | 3.19 | active
DCT (dopachrome tautomerase) | 1 | 0.555 | -0.0626 | 1.28 | inactive
TSPYL6 (TSPY like 6) | 1 | 1.13 | 1.37 | 1.41 | inactive
EML3 (EMAP like 3) | 1 | -0.285 | 0.105 | -0.394 | inactive
TOB1-AS1 (TOB1 antisense RNA 1) | 1 | -0.691 | -0.818 | -0.611 | inactive
ARHGEF15 (Rho guanine nucleotide exchange factor 15) | 1 | -0.136 | -0.275 | -0.384 | inactive
MYO7B (myosin VIIB) | 1 | 0.469 | 0.321 | 0.181 | inactive

Next part; the last 4 above are carried over.
Gene | reagent no. | robust z-score, replicate 1 | robust z-score, replicate 2 | robust z-score, replicate 3 | outcome
EML3 (EMAP like 3) | 1 | -0.285 | 0.105 | -0.394 | inactive
TOB1-AS1 (TOB1 antisense RNA 1) | 1 | -0.691 | -0.818 | -0.611 | inactive
ARHGEF15 (Rho guanine nucleotide exchange factor 15) | 1 | -0.136 | -0.275 | -0.384 | inactive
MYO7B (myosin VIIB) | 1 | 0.469 | 0.321 | 0.181 | inactive
MEA1 (male-enhanced antigen 1) | 1 | 1.24 | 1.21 | 0.816 | inactive
GMEB1 (glucocorticoid modulatory element binding protein 1) | 1 | 1.87 | -1.06 | -0.138 | inactive
S100A5 (S100 calcium binding protein A5) | 1 | 0.0405 | -0.164 | -0.296 | inactive
RPL13AP17 (ribosomal protein L13a pseudogene 17) | 1 | -0.35 | -0.204 | -0.275 | inactive
DIP2C-AS1 (DIP2C antisense RNA 1) | 1 | 0.498 | 0.418 | 0.195 | inactive
WSB1 (WD repeat and SOCS box containing 1) | 1 | -1.61 | -0.117 | -1.48 | inactive
SYNPO (synaptopodin) | 1 | 0.545 | -1.09 | -0.0907 | inactive
LHX6 (LIM homeobox 6) | 1 | -1.58 | -1.76 | -1.68 | inactive
SATL1 (spermidine/spermine N1-acetyl transferase like 1) | 1 | -1.11 | -1.41 | -1.31 | inactive
CABLES1 (Cdk5 and Abl enzyme substrate 1) | 1 | 1.01 | -0.621 | 0.449 | inactive
NFIA (nuclear factor I A) | 1 | 2.57 | 2.26 | 2.25 | active
DCN (decorin) | 1 | 1.09 | -0.417 | 0.0941 | inactive
LRRC74A (leucine rich repeat containing 74A) | 1 | 0.14 | -0.381 | -0.0778 | inactive
LOC391403 (retired record) | 1 | -1.74 | -1.37 | -1.68 | inactive
SLC27A3 | 1 | -0.0617 | -0.386 | -1.38 | inactive
OSGIN1 (oxidative stress induced growth inhibitor 1) | 1 | -0.836 | -0.831 | -1.1 | inactive
NIP7 (nucleolar pre-rRNA processing protein NIP7) | 1 | -0.25 | 1.65 | 1.2 | inactive
KIF17 (kinesin family member 17) | 1 | -0.837 | -0.269 | -0.414 | inactive
EMC1 (ER membrane protein complex subunit 1) | 1 | 1.2 | -1.29 | 1.64 | inactive
NLRP2 (NLR family pyrin domain containing 2) | 1 | -0.0532 | 1.33 | -0.281 | inactive
BICDL1 (BICD family like cargo adaptor 1) | 1 | 0.584 | -0.739 | -0.471 | inactive
SLC22A4 | 1 | 0.701 | 0.84 | 0.833 | inactive
RAB4B (RAB4B, member RAS oncogene family) | 1 | -1.21 | 1.49 | -1.15 | inactive
TXNRD2 (thioredoxin reductase 2) | 1 | -1.71 | -1.56 | -1.64 | inactive
RBSN (rabenosyn, RAB effector) | 1 | -1.31 | -0.395 | -0.539 | inactive
CLEC4C (C-type lectin domain family 4 member C) | 1 | 0.772 | 1.47 | 0.881 | inactive
PMS2 (PMS1 homolog 2, mismatch repair system component) | 1 | 1.54 | 2.12 | 2.53 | active
MYL3 (myosin light chain 3) | 1 | -0.221 | 0.33 | -1.3 | inactive
ZZEF1 (zinc finger ZZ-type and EF-hand domain containing 1) | 1 | 1.48 | -1.19 | 0.935 | inactive
MMP12 (matrix metallopeptidase 12) | 1 | -0.659 | 0.308 | 0.19 | inactive
SYDE2 (synapse defective Rho GTPase homolog 2) | 1 | -0.116 | -0.00855 | -0.313 | inactive
ATR (ATR checkpoint kinase) | 1 | 0.986 | 0.804 | 0.895 | inactive
